Laboratory results from article PMC8274477.
No constants are given. Whether binding was seen depends on the method and setting. Some entries that bind do so weakly or less than the wild type.

Tests used:
Experiment in all cases: peptide or protein array; HuProt human proteome microarray; 5 ug/5 ml biotin-labelled LUBAC or OTULIN in solution, 1 h at room temperature; Cy5-streptavidin, scanned at 635 nm; BSA as negative control; hits: Z-score >= 3 and I_(Mean_Ratio) >= 1.4; both purified
TTC9C (human) = target: T1, TTC9C (human) (UniProt Q8N5M4)
T1 sequence: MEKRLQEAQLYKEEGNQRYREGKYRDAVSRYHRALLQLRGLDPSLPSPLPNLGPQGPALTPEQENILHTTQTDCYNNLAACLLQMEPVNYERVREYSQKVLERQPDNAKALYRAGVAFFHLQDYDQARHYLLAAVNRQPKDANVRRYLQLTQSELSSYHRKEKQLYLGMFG

QARS (human) = target: T2, QARS (human) (UniProt P47897)
T2 sequence: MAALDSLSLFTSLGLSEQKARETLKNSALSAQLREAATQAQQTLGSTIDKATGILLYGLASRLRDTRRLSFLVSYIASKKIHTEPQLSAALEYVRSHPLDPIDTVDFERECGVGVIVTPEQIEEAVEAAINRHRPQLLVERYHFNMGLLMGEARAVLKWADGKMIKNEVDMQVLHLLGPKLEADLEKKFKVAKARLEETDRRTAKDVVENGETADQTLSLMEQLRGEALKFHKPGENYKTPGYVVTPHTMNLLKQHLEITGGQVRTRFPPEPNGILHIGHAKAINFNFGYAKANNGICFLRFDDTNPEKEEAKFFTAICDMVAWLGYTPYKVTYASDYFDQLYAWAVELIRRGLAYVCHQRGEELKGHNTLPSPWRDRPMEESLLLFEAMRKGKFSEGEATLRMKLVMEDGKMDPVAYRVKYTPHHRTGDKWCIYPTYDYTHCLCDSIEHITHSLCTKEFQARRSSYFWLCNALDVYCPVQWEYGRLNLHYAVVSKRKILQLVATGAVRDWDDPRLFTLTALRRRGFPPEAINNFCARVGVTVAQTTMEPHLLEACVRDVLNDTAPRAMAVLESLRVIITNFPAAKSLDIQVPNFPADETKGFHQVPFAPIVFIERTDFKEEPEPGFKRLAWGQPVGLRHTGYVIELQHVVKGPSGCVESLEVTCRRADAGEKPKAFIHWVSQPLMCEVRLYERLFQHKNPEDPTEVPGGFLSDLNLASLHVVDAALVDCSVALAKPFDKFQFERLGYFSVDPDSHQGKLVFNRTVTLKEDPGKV

ZFYVE1 (human) = target: T3, ZFYVE1 (human) (UniProt Q9HBF4)
T3 sequence: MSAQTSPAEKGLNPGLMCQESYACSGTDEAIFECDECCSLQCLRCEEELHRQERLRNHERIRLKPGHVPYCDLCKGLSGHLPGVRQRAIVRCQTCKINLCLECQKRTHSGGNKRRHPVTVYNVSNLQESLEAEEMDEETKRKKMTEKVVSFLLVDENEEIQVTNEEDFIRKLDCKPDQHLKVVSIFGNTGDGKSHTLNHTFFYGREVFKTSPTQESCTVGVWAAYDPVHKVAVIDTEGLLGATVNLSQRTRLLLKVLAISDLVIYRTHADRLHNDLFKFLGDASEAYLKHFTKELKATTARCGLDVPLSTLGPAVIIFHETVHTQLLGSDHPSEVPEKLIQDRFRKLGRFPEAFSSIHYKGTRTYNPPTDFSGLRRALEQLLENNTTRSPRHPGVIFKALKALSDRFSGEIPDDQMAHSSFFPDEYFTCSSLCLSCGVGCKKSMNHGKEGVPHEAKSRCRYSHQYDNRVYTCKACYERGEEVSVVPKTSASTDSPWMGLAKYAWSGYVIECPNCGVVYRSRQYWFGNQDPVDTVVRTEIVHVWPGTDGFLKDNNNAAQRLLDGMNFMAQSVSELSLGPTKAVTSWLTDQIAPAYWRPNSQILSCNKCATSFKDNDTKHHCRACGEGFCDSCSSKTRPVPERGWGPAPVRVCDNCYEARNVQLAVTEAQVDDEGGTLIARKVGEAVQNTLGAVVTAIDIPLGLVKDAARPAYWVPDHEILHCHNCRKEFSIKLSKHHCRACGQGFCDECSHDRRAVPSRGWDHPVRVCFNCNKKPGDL

SPRR4 (human) = target: T4, SPRR4 (human) (UniProt Q96PI1)
T4 sequence: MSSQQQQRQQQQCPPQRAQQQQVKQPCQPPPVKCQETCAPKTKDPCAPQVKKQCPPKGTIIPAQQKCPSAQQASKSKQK

CDCA3 (human) = target: T5, CDCA3 (human) (UniProt Q99618)
T5 sequence: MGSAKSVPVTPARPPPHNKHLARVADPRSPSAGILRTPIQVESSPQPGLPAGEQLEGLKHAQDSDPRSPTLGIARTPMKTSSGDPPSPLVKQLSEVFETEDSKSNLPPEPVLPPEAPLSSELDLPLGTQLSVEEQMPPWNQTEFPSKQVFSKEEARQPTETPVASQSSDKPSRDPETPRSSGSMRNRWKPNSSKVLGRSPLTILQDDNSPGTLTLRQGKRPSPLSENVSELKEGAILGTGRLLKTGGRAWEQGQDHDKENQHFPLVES

Measured: binding

linear ubiquitin chain assembly complex (LUBAC), purified as HIS-tagged HOIP with the subunit HOIL-1, biotin-labelled (from UniProt Q96EP0 1-1072; Q9BYM8 1-510)
binds: all assays above
